The test concerns the target recombinant human tryptase beta 1 tetramer (wild type, active) (human) (UniProt Q15661). The test is described as follows: X-ray crystallography, 2.15 A; ternary complex isolated by SEC.

Chains of the proteins cited; added tags and fusions are not shown. Lines headed by an entry give the natural chain unless they say otherwise; changes in a name come on top.
UniProt Q15661: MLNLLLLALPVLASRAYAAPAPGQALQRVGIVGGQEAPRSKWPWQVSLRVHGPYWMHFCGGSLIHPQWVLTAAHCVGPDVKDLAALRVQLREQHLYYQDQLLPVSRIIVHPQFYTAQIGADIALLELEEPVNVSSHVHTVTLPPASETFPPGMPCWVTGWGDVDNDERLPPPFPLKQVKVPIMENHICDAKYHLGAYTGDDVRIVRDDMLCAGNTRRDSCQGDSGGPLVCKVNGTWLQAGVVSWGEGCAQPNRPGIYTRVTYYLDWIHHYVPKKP

No constants are given. Whether binding was seen depends on the method and setting. Some entries that bind do so weakly or less than the wild type.

Consider one molecule from patent US20180230233A1.

B1: soybean trypsin inhibitor (STI) (protein, UniProt P01070 25-205, looked up)
chain: DFVLDNEGNPLENGGTYYILSDITAFGGIRAAPTGNERCPLTVVQSRNELDKGIGTIISSPYRIRFIAEGHPLSLKFDSFAVIMLCVGIPTEWSVVEDLPEGPAVKIGENKDAMDGWFRLERVSDDEFNNYKLVFCPQQAEDDKCGDIGISIDHDDGTRRLVVSKNKPLVVQFQKLDKESL
As for B1, the binding result is recorded as “binds”.
